Reference: patent US20030022205A1
No constants are given. Whether binding was seen depends on the method and setting. In cells and extracts the contact can be indirect. Some entries that bind do so weakly or less than the wild type. Tags and fused reporters may be left off the sequences shown.

The chains behind the UniProt entries cited, without tags or fusion partners.
UniProt P04775: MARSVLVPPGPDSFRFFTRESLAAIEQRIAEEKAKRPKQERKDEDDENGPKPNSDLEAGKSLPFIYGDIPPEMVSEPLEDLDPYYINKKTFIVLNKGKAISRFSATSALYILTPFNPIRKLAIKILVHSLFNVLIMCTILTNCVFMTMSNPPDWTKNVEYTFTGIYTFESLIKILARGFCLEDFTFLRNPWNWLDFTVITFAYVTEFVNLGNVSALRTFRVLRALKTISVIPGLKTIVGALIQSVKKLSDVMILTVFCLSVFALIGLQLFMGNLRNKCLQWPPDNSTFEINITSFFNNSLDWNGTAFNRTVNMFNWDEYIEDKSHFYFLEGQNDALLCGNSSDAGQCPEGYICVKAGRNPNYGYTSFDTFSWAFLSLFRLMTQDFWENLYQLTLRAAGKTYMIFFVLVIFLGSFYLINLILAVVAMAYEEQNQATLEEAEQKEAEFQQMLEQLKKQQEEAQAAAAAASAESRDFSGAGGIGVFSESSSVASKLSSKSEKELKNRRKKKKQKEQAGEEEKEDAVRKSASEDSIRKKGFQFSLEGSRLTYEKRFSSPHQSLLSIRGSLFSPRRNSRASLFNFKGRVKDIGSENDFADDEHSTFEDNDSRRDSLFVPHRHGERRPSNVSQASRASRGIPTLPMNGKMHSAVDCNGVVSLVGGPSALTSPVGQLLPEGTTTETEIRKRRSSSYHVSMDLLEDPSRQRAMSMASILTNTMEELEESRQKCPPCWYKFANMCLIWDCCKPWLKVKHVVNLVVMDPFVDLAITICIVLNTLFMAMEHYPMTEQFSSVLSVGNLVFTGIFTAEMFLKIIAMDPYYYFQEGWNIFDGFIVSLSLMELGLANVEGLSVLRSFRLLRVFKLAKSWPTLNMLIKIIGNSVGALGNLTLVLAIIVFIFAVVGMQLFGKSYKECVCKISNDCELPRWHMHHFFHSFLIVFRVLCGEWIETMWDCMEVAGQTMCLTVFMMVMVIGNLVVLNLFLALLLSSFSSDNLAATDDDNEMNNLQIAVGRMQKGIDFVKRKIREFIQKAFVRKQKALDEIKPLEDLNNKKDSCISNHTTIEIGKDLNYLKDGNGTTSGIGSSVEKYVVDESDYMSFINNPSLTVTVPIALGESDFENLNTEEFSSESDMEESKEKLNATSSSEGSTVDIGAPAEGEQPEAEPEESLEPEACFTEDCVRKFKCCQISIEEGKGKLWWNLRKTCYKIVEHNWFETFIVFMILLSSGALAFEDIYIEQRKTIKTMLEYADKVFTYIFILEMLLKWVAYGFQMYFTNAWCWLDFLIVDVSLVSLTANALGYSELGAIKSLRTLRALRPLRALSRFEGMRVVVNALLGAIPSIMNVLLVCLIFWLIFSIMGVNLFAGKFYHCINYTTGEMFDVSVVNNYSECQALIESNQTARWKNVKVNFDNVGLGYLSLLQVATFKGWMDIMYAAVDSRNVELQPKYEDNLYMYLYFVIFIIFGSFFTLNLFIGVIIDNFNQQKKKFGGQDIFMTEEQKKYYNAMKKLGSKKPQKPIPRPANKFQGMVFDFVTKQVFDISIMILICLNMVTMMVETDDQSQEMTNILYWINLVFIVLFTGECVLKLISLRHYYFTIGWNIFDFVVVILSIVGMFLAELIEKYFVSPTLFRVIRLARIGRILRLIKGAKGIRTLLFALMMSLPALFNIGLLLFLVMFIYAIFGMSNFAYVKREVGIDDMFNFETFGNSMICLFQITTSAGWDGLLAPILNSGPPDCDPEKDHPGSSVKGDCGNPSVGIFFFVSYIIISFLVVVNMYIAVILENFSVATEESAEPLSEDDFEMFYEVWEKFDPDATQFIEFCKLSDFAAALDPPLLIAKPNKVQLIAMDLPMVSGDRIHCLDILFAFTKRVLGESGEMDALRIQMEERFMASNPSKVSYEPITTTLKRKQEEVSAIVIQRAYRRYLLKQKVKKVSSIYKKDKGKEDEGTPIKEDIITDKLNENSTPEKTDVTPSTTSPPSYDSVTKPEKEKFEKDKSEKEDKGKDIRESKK

What was measured:
[1] = biological target: untagged rNav1.2 α subunit (UniProt P04775); test: co-immunoprecipitation from cotransfected tsA-201 cells with SP20, SDS-PAGE, anti-HA11 immunoblot
[2] = biological target: HA-tagged rNav1.2 α subunit (UniProt P04775); test: as above

B1: HA-tagged β4 subunit (98359, sodium channel beta-4 subunit) (protein, not shown: small tags and cut ends)
chain: LEVSVGKATDIYAVNGTEILLPCTFSSCFGFEDLHFRWTYNSSDAFKILIEGTVKNEKSDPKVTLKDDDRITLVGSTKEKMNNISIVLRDLEFSDTGKYTCHVKNPKENNLQHHATIFLQVVDRLEEVDNTVTLIILAVVGGVIGLLILILLIKKLIIFILKKTREKKKECLVSSSGNDNTENGLPGSKAEEKPPSKV
- binding [1]: binds
- binding [2]: binds
